For this assay, the target named is T1, FLAG-tagged Samd11 (mouse) (UniProt Q1RNF8).
T1 sequence: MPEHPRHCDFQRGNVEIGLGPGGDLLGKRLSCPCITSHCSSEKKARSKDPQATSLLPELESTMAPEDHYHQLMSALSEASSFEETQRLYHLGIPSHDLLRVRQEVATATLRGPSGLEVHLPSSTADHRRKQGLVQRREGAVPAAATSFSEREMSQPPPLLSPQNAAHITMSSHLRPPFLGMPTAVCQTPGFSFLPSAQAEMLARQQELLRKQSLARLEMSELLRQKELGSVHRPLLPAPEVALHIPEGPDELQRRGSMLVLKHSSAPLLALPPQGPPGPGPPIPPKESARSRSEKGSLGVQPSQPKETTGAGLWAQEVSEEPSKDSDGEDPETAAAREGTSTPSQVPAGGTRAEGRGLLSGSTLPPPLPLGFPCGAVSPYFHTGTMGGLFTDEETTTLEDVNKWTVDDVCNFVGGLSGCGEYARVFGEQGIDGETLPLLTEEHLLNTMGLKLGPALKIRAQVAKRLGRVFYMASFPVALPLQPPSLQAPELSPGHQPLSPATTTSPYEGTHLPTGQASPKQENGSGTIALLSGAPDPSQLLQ
The experiment in a line: co-IP; HEK293 cells co-transfected with FLAG-Samd11 and an HA-tagged partner for 48 h; lysate in IP250 buffer (20 mM HEPES, 10% glycerol, 250 mM NaCl, 0.2 mM EDTA, 1 mM DTT), sonicated; anti-FLAG M2 affinity gel overnight at 4 C; eluted with FLAG peptide; western blot.

No constants are given. Whether binding was seen depends on the method and setting. Binding seen in cells or lysates may run through a third protein. Some binding calls cover weakened binding; strength is not graded here. Tags and fused reporters may be left off the sequences shown.

B1: HA-tagged Samd7 (protein, UniProt Q8C8Y5 1-445)
chain: MTNPMMSVSSLLTSGQQKVPMVPSPFGPPIVDRDVLSSSIAPTDPSQFCVPSQFGSSGLPNANMPNPLSSHFYSGWGILPPEPIKAVTTRNEMFERHHAARAEMEMYSLYQQRRMERVNPKGLSGLGIPLFYGSSCLGGPTGFQGRSTLPASDVHLHRSTFRHLQGNPILLATRPHFTECWGQKYRLRRGAVYQKPPESDTESFKSQAEEKSSSQMPTLSYEEEEYIKDPDIEVDNQQKPRVADGKPTTVPANPHGELHTHQRKPSSLEANAWDDGKGKPSEQVYEGCDGKNGVFRPVSILPLSGTHEQVALRENCSLSDIQKWTVDDVYNFIRSLPGCSDYAQVFKDHAIDGETLPLLTEQHLRGTMGLKLGPALKIQSQVSQHVGNMFCKKLPSLPTHARQAFDQPADTSPLLDMSSWSDGLSIPGPQDLLSPKRTEQDVMRN
Turning to B1, the binding result is reported as “binds”.

B2: FLAG-tagged Samd11 (protein, UniProt Q1RNF8 1-542)
chain: MPEHPRHCDFQRGNVEIGLGPGGDLLGKRLSCPCITSHCSSEKKARSKDPQATSLLPELESTMAPEDHYHQLMSALSEASSFEETQRLYHLGIPSHDLLRVRQEVATATLRGPSGLEVHLPSSTADHRRKQGLVQRREGAVPAAATSFSEREMSQPPPLLSPQNAAHITMSSHLRPPFLGMPTAVCQTPGFSFLPSAQAEMLARQQELLRKQSLARLEMSELLRQKELGSVHRPLLPAPEVALHIPEGPDELQRRGSMLVLKHSSAPLLALPPQGPPGPGPPIPPKESARSRSEKGSLGVQPSQPKETTGAGLWAQEVSEEPSKDSDGEDPETAAAREGTSTPSQVPAGGTRAEGRGLLSGSTLPPPLPLGFPCGAVSPYFHTGTMGGLFTDEETTTLEDVNKWTVDDVCNFVGGLSGCGEYARVFGEQGIDGETLPLLTEEHLLNTMGLKLGPALKIRAQVAKRLGRVFYMASFPVALPLQPPSLQAPELSPGHQPLSPATTTSPYEGTHLPTGQASPKQENGSGTIALLSGAPDPSQLLQ
B2: the binding result was “binds”.

B3: HA-tagged Phc2 (protein, UniProt Q9QWH1 1-850)
chain: MENELPVPHTSNRASVTTNTSGTNSSSGCISSSGGGGGSGGRPTAPQISVYSGIPDRQTVQVIQQALHRQPSTAAQYLQQMYAAQQQHLMLQTAALQQQHLSSAQLQSLAAVQQASLVANRQGSTPGSSVSSQAPAQSSSLNLAASPAAAQLINRAQSVNSAAASGLAQQAVLLGNTSSPALTASQAQMYLRAQMLIFTPTATVATVQPELCTGSPARPPTPAQVQNLTLRTQQTPAAAASGPPPTQPVLPSLALKPTPSSSQPLPAPPQGRTMAQGSPAGAKPSGTDNAPETLKAGDGNCNMEGRPGPGRAVPAVATHPLIAPAYAHLQSHQLLPQPPAKHPQPQFVAQQQPQPPRPAPQVQSQPQLASVSPSLALQSSPEDHALPLGSVTQALPLQCSTTHVHKPGNSQQCHLPTLDTGSQNGHPEGGSHPPQRRFQHTSAVILQVQPASPVTPQQCAPDDWKEVVPAEKSVPVARPGPSPHQQAIIPAIPGGLPGPKSPNIQQCPAHETGQGIVHALTDLSSPGMTSGNGNSASSIAGTAPQNGENKPPQAIVKPQILTHVIEGFVIQEGAEPFPVGRSSLLVGNLKKKYAQGFLPEKPPQQDHTTTTDSEMEEPYLQESKEEGTPLKLKCELCGRVDFAYKFKRSKRFCSMACAKRYNVGCTKRVGLFHSDRSKLQKAGTTTHNRRRASKASLPTLTKDTKKQPSGTVPLSVTAALQLAHSQEDSSRCSDNSSYEEPLSPISASSSTSRRRQGQRDLDLPDMHMRDLVGVGHHFLPSEPTKWNVEDVYEFIRSLPGCQEIAEEFRAQEIDGQALLLLKEDHLMSAMNIKLGPALKIYARISMLKDS
On to B3, for which the binding result is listed as “binds”.

Values taken from publication PMC7892874.
